The list shows a part of the results. Further columns of the screen follow, without active or inactive calls. The list favours compounds with an active or inconclusive main result. Potencies come from curve fits of mixed quality, noted in brackets.
Assay: qHTS Assay for Lipid Storage Modulators in Drosophila S3 Cells;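 for cell number change: cells counted by Cell Tracker Red CMTPX staining in the red channel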
Conditions: BODIPY lipid droplet fluorescence, 18-24 h; for cell number change: measured here: cell count max response, cells fed with added oleic acid
Summary of the method: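 Drosophila S3 cells got compounds at several concentrations plus oleic acid (400 uM solution). Laser-scanning cytometry with 488 nm excitation read lipid droplets at 500-530 nm and cells at 575-640 nm. Percent activity was relative to 20 uM Triacsin C.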

[1] = measured here: cell number channel AC50, cells fed with added oleic acid
[2] = measured here: lipid fluorescence (Fed channel) AC50, cells fed with added oleic acid

Compound | cell number change [%] | AC50 [1] | AC50 [2]
CSc1nc2ccccc2n1CC(=O)Nc1c(C)n(C)n(-c2ccccc2)c1=O | -17.9 | 0.651 µM [falling, full curve, poor fit] | 0.82 µM [rising, partial curve]
COc1ccc(CSc2nc3ccccc3c(=O)[nH]2)cc1F | 14.2 | – | 0.103 µM [rising, full curve, poor fit]
CCOc1cc2[nH]c(=O)n(CCCCCC(=O)NC3CCCC3)c(=O)c2cc1OCC | -37.1 | 4.61 µM [falling, full curve, poor fit] | –
Cc1cccc(NC(=O)C2CC(=O)OC23CCCCC3)c1 (centres undefined) | -54.9 | 25.9 µM [falling, single point] | 0.58 µM [falling, single point]
CCOc1ccc(C(=O)SC2=NCCS2)cc1 | -25.9 | – | 29.1 µM [falling, single point]
O=C(CNC(=O)c1cccs1)N=Nc1c(O)[nH]c2ccc([N+](=O)[O-])cc12 | -10.4 | – | 29.1 µM [falling, single point]
CC(C)SCC(=O)Nc1ncc2c(n1)-c1ccccc1CC2 | 46.3 | – | –
Cc1ccccc1C(=O)NNC(=O)c1cccc(Br)c1 | 11.7 | – | 29.1 µM [rising, single point]
O=C(Nc1nnc(CCN2CCOCC2)s1)c1ccccc1 | 18.9 | 0.164 µM [rising, full curve, poor fit] | 3.26 µM [rising, full curve, poor fit]
N#Cc1nc(-c2ccco2)oc1N1CCCC1 | 17.9 | – | 6.51 µM [falling, single point]
O=C(CNC(=O)c1cccc(F)c1)OCc1cc(=O)n2cc(Br)ccc2n1 | -34.8 | 2.91 µM [falling, partial curve] | 6.51 µM [rising, single point]
COCC(C)n1c(C)cc(C(=O)COc2ccc(N(C)S(=O)(=O)c3ccc(NC(C)=O)cc3)cc2)c1C (centres undefined) | 42.8 | 7.31 µM [rising, partial curve] | –
O=C(NCCN1CCOCC1)C1CCC(=O)N1Cc1ccc(F)cc1 (centres undefined) | -9.91 | 0.82 µM [falling, full curve, poor fit] | 29.1 µM [falling, partial curve]
Cn1cc(/C=N\NC(=O)C2COc3ccccc3O2)c2ccccc21 (centres undefined) | -14.4 | – | –
Cc1ccccc1N(C(=O)CCCC(=O)Nc1ccccn1)C(C(=O)NC1CCCC1)c1ccc(O)cc1 (centres undefined) | 3.78 | – | 0.231 µM [rising, full curve, poor fit]
CCCCOc1ccc(CSC(=N)N)cc1Cl | -43 | 9.2 µM [falling, partial curve, poor fit] | –
O=C(NC1CCOCC1)C1CCC(=O)N(Cc2cccc(C(F)(F)F)c2)C1 (centres undefined) | – | – | 6.51 µM [falling, single point]
COC(=O)c1ccccc1NC(=O)c1cc(OC)cc(OC)c1 | 127 | 3.66 µM [rising, full curve] | –
CSc1ccc(/C=N/NC(=O)CNc2ccc3ccccc3c2)cc1 | -19.5 | – | 18.4 µM [falling, single point]
Cc1cccc(OCC(=O)N2CCC3(CC2)CC(=O)c2ccccc2O3)c1 | 3.23 | – | –

As a working copy, eleven of the compounds above:
Compound | cell number change [%] | AC50 [1] | AC50 [2]
CSc1nc2ccccc2n1CC(=O)Nc1c(C)n(C)n(-c2ccccc2)c1=O | -17.9 | 0.651 µM [falling, full curve, poor fit] | 0.82 µM [rising, partial curve]
COc1ccc(CSc2nc3ccccc3c(=O)[nH]2)cc1F | 14.2 | – | 0.103 µM [rising, full curve, poor fit]
CCOc1cc2[nH]c(=O)n(CCCCCC(=O)NC3CCCC3)c(=O)c2cc1OCC | -37.1 | 4.61 µM [falling, full curve, poor fit] | –
Cc1cccc(NC(=O)C2CC(=O)OC23CCCCC3)c1 (centres undefined) | -54.9 | 25.9 µM [falling, single point] | 0.58 µM [falling, single point]
CCOc1ccc(C(=O)SC2=NCCS2)cc1 | -25.9 | – | 29.1 µM [falling, single point]
O=C(CNC(=O)c1cccs1)N=Nc1c(O)[nH]c2ccc([N+](=O)[O-])cc12 | -10.4 | – | 29.1 µM [falling, single point]
CC(C)SCC(=O)Nc1ncc2c(n1)-c1ccccc1CC2 | 46.3 | – | –
Cc1ccccc1C(=O)NNC(=O)c1cccc(Br)c1 | 11.7 | – | 29.1 µM [rising, single point]
O=C(Nc1nnc(CCN2CCOCC2)s1)c1ccccc1 | 18.9 | 0.164 µM [rising, full curve, poor fit] | 3.26 µM [rising, full curve, poor fit]
N#Cc1nc(-c2ccco2)oc1N1CCCC1 | 17.9 | – | 6.51 µM [falling, single point]
O=C(CNC(=O)c1cccc(F)c1)OCc1cc(=O)n2cc(Br)ccc2n1 | -34.8 | 2.91 µM [falling, partial curve] | 6.51 µM [rising, single point]

Further results.

Compound | cell number change [%] | AC50 [1] | AC50 [2]
COC(=O)c1ccc(NC(=O)CCN2CCOCC2)cc1 | -0.265 | – | 5.17 µM [rising, full curve]
Clc1ccc2[nH]c3c(N4CCC5(CC4)OCCO5)ncnc3c2c1 | -16.9 | – | 5.17 µM [falling, full curve]
CC12CCC(=O)N1C(C(=O)Nc1nc3ccccc3s1)CS2 (centres undefined) | -17.5 | – | 32.6 µM [falling, single point]
O=C(CCN1CCOCC1)N/N=C/c1cc([N+](=O)[O-])ccc1OC(F)F | 13.3 | 6.51 µM [falling, single point] | 6.51 µM [falling, single point]
CCc1cc(=O)oc2cc(C)cc(OCC(=O)NCCc3c[nH]c4ccccc34)c12 | -0.872 | – | 29.1 µM [falling, single point]
Cc1cc(=O)oc2cc(O[C@@H]3O[C@H](CO)[C@@H](O)[C@H](O)[C@H]3O)ccc12 | 38.9 | 5.17 µM [rising, partial curve, poor fit] | 1.64 µM [falling, partial curve, poor fit]
CNc1snc(C)c1C(=O)OCC(=O)N(C)c1ccccc1 | -20.5 | – | 6.51 µM [falling, full curve, poor fit]
CCOc1cc(S(=O)(=O)NC2CC2)c(OCC)cc1-n1cnnn1 | 73.8 | 7.31 µM [rising, partial curve] | –
COc1ccc(C2(c3ccc(OC)cc3)NC(=O)N(CC(=O)NC3(C#N)CCCCC3)C2=O)cc1 | -25.2 | 0.651 µM [falling, full curve, poor fit] | 6.51 µM [falling, single point]
CC(=O)NCCc1nc2ccccc2n1Cc1ccc(C)cc1 | -19.7 | – | 32.6 µM [falling, single point]
COc1cccc(NC(=O)CSc2ccc3nnc(-c4cccnc4)n3n2)c1 | -23.4 | – | 35.5 µM [falling, single point]
COc1ccc(N2CCN(C(=O)CSc3ccccc3N)CC2)cc1 | 7.48 | – | 4.11 µM [rising, full curve, poor fit]
O=C(O)c1nccnc1C(=O)N1CCN(c2ccccc2)CC1 | -5.23 | – | 29.1 µM [rising, single point]
Cc1ccc(C)c(NS(=O)(=O)c2ccc(OCC(=O)NCC3CCCO3)cc2)c1 (centres undefined) | -15.7 | – | 4.61 µM [rising, partial curve, poor fit]
CCN(C(=O)CSc1ncnc2c1cnn2-c1ccccc1)C1CCS(=O)(=O)C1 (centres undefined) | -17.6 | – | 0.92 µM [falling, partial curve]
COc1ccc(N(C)C(=O)c2cc3c(s2)-c2ccccc2S(=O)(=O)C3)cc1 | 47.4 | 7.31 µM [rising, partial curve] | 9.2 µM [rising, partial curve]
Cc1cc([N+](=O)[O-])ccc1N=Nc1c(N)[nH]n(-c2ccccc2)c1=O | – | 3.26 µM [rising, partial curve] | 1.64 µM [rising, partial curve]
CC(=O)Nc1ccc(OCC(=O)NCc2ccc3c(c2)OCO3)cc1 | -18.3 | – | –
COc1ccc(Cc2nc(-c3ccc(Br)cc3)no2)cc1 | – | 2.31 µM [rising, single point] | –
CC(=O)Nc1ccc(N2C(=O)C3C4C=CC(CC4)C3C2=O)cc1 (centres undefined) | 9.91 | – | –

Compound | cell number change [%] | AC50 [1] | AC50 [2]
COC(=O)[C@]1(C)N[C@H](c2ccc(-c3ccc(Cl)c(Cl)c3)cc2)[C@@H]2C(=O)N(C)C(=O)[C@@H]21 | -41.4 | 16.4 µM [falling, single point] | –
CCC1(C)Cc2ccccc2C(=O)N1 (centres undefined) | 12.9 | – | –
COc1cccc(NC(=O)c2cc3ccccc3o/c2=N\O)c1 | -40.1 | 4.61 µM [falling, partial curve] | 5.8 µM [falling, single point]
O=C(O)Cc1ccc(-c2ccccc2-c2ccccc2)cc1 | 5.59 | – | 0.517 µM [rising, partial curve, poor fit]
CC(C)(C)NCC(O)c1cc(O)cc(O)c1 (centres undefined) | 29 | 0.092 µM [rising, full curve, poor fit] | 0.116 µM [rising, full curve, poor fit]
CC(C)(C)C(O)CN1CCCC1 (centres undefined) | 27.1 | – | 0.206 µM [rising, full curve]
O=C1Nc2ccccc2C12OCC(COc1ccc(Cl)cc1)O2 (centres undefined) | -57.5 | 32.6 µM [falling, partial curve] | –
CCOc1ccc(/C=C(\C)C(=O)c2c(C)cc(C)[nH]c2=O)cc1 | 30.1 | 0.00461 µM [rising, full curve, poor fit] | 29.1 µM [rising, single point]
Cc1cccc(C)c1OCC(=O)Nc1ccc2c(c1)OCCO2 | -4.32 | – | 3.66 µM [falling, full curve]
Cc1ccccc1Nc1nc(N)nc(CN2CCN(C(=O)c3ccccc3)CC2)n1 | – | 4.11 µM [rising, single point] | –
O=C(NCc1ccco1)/C(=C/c1ccc(Cl)cc1)NC(=O)c1ccco1 | -22.9 | 2.06 µM [rising, partial curve, poor fit] | –
CSc1ccc(C2C(C#N)=C(N)N(c3ccccc3)C3=C2C(=O)CCC3)cc1 (centres undefined) | 4.7 | – | 0.82 µM [rising, full curve]
COc1ccc(Cl)cc1C(=O)OCC(=O)N(CC(C)C)c1c(N)n(Cc2ccccc2)c(=O)[nH]c1=O | 16.6 | – | 2.31 µM [rising, partial curve, poor fit]
Cc1oc2ncnc(N)c2c1C | -4.97 | – | –
N#CC(C(=O)NCc1ccco1)c1nc2ccccc2nc1N1CCOCC1 (centres undefined) | -9.79 | – | 4.61 µM [rising, full curve]
Cc1cc(C(=O)Nc2sc(C)c(-c3ccc(F)cc3)c2C(N)=O)no1 | 15.5 | – | 4.11 µM [rising, partial curve, poor fit]
COc1ccc(C(=O)N2CCN(CCNC(=O)C(=O)Nc3ccc(Br)cc3)CC2)cc1 | 7.43 | 3.66 µM [rising, single point] | 29.1 µM [rising, single point]
CCC(CO)Nc1ncnc2c1cnn2-c1ccc(OC)cc1 (centres undefined) | -9.93 | – | 18.4 µM [falling, single point]

From PubChem BioAssay AID2685 (National Center for Advancing Translational Sciences (NCATS), 2010)
